Reference: patent US20110130386A1, “DNA-PK INHIBITORS” (priority 2008, published 2011)

Chains of the proteins cited; added tags and fusions are not shown.
UniProt P78527, whole entry: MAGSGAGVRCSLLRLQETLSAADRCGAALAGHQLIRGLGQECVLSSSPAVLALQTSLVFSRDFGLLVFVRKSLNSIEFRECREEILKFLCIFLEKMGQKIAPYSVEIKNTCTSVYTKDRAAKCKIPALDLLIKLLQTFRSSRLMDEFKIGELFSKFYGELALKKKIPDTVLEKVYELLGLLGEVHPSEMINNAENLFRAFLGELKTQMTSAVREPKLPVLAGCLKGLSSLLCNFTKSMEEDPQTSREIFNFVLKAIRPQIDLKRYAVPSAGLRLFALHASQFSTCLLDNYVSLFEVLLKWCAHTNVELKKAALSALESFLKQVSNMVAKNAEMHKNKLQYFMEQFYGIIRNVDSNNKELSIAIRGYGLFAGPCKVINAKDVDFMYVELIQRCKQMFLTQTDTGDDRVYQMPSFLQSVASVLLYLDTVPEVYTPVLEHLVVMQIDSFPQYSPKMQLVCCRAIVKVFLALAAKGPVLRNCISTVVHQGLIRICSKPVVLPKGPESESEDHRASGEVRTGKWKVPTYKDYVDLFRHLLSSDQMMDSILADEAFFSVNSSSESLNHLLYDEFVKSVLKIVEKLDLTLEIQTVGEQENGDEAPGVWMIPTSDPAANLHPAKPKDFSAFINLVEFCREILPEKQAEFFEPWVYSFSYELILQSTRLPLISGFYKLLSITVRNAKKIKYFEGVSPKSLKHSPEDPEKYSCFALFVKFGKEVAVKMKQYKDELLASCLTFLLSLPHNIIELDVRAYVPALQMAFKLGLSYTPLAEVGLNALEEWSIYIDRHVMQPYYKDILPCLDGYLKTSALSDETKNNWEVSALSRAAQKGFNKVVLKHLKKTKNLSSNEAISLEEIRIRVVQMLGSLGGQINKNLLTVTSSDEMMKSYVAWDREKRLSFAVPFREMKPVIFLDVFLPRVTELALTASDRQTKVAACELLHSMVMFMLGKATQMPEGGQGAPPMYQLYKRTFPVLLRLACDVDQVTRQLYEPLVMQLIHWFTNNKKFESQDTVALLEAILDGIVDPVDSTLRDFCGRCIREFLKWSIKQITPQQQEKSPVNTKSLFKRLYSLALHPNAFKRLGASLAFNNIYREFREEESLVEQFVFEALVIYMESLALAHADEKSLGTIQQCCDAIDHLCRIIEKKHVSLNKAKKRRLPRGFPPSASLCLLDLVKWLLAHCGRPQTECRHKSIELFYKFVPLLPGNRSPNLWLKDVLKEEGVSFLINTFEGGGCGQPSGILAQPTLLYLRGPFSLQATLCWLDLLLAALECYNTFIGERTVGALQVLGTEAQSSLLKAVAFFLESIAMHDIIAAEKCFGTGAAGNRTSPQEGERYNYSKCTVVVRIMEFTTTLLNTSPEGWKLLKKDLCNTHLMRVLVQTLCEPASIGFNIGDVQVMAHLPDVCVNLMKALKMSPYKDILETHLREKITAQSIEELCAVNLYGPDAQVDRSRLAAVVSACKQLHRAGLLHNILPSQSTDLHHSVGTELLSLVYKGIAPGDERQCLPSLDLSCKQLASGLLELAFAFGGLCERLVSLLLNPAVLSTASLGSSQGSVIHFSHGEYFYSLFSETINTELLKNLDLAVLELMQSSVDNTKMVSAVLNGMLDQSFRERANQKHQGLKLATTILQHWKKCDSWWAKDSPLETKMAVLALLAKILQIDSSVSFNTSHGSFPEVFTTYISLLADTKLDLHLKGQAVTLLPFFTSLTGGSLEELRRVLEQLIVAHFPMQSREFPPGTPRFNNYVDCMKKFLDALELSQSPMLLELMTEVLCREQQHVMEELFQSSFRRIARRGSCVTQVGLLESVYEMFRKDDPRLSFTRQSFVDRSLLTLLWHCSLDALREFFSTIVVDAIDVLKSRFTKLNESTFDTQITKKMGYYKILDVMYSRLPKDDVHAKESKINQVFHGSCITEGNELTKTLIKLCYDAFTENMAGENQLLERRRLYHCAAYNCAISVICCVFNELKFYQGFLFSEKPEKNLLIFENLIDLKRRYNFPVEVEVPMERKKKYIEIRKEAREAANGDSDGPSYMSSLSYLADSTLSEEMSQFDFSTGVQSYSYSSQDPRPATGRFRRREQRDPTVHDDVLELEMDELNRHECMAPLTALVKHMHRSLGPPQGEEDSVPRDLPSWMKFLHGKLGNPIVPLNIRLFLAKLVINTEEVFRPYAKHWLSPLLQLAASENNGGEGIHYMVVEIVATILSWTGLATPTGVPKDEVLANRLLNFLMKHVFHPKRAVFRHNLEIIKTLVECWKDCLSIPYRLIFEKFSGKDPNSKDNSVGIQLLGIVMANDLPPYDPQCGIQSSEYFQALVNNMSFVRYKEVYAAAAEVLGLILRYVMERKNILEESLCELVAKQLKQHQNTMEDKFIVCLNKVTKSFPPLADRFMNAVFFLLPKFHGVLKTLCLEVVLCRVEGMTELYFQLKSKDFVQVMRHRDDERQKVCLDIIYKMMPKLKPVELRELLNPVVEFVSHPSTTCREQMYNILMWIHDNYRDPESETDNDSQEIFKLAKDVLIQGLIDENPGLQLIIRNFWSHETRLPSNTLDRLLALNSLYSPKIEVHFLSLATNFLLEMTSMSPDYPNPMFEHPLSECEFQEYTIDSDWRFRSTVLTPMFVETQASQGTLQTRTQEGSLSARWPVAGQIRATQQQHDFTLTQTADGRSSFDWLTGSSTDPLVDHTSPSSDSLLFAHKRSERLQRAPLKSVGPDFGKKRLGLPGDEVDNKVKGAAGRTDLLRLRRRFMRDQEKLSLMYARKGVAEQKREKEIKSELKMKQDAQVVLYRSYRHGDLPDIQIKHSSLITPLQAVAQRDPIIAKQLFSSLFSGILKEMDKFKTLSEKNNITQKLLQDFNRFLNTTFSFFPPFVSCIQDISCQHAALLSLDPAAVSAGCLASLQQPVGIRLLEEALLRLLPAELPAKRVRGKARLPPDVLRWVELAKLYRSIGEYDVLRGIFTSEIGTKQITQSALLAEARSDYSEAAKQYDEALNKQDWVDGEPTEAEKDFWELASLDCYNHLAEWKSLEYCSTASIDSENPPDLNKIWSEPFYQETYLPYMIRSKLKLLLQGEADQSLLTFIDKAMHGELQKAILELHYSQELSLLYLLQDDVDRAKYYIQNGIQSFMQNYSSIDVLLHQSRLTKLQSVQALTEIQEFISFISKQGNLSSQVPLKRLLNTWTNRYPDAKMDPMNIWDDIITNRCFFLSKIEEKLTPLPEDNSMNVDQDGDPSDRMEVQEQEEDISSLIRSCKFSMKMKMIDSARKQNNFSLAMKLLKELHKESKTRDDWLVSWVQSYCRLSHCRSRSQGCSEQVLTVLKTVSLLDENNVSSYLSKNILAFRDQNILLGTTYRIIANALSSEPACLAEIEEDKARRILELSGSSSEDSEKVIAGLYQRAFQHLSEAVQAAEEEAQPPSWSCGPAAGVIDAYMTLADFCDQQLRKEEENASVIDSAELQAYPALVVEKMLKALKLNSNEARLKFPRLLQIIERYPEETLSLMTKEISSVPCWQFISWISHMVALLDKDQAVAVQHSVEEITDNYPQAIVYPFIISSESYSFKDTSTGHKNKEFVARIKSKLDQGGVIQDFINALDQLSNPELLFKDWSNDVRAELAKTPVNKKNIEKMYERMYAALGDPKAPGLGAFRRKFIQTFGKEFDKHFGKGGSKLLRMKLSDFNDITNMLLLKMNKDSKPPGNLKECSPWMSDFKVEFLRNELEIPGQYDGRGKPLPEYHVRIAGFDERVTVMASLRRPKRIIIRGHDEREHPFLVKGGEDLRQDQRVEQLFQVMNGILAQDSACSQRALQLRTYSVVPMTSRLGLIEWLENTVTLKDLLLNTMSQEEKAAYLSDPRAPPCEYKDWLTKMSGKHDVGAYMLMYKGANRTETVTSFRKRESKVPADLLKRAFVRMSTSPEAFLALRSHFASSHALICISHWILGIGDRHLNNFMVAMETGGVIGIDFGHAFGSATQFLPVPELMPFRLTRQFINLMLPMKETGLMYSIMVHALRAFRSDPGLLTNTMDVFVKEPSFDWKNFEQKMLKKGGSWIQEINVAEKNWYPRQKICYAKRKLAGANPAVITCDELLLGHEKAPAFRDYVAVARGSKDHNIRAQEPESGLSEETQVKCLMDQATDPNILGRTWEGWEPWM
UniProt P12956, whole entry partner: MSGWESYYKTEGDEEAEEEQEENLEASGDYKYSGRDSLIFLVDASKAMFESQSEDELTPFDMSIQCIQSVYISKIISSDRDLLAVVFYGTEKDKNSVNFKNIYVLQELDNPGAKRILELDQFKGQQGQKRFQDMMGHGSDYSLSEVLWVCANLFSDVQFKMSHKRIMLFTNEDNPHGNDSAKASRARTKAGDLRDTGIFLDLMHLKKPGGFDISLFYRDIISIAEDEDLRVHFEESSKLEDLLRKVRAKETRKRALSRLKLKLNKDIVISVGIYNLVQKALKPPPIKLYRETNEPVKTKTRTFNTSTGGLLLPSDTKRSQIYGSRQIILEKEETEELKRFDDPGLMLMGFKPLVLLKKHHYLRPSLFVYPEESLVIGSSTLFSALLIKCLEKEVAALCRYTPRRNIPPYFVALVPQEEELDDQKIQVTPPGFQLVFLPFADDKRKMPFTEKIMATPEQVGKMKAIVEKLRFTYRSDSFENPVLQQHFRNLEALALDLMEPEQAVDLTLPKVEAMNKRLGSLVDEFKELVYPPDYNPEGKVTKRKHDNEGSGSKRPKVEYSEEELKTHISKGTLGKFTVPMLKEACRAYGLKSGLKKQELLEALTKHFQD
UniProt P13010, whole entry partner: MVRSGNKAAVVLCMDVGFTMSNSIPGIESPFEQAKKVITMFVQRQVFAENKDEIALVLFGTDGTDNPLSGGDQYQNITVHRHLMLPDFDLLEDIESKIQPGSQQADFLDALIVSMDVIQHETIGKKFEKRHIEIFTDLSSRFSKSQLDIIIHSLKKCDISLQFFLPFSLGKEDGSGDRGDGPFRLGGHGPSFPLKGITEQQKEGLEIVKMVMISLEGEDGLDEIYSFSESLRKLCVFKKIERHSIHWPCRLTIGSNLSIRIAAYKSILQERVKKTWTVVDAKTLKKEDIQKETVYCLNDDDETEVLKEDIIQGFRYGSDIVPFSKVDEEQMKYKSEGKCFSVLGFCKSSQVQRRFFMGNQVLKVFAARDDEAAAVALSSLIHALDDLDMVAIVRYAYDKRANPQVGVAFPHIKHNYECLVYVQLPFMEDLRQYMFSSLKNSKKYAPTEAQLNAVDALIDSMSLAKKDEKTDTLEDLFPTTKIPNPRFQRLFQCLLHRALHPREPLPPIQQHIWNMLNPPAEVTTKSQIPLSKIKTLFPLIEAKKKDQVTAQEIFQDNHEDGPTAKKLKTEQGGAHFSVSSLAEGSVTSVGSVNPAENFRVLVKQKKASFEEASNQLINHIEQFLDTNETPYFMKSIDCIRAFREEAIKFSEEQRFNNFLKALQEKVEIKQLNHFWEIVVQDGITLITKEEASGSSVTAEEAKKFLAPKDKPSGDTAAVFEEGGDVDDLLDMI

Molecular target: Mammalian DNA-PK (Homo sapiens, UniProt P78527)
Assay: DNA-PK inhibition assay (ELISA of p53 Ser15 phosphorylation of GST-p53N66)
Assay type: biochemical, Mammalian (isolated from HeLa cell nuclear extract)
Details: read-out: mean IC50; DNA-PK from HeLa nuclear extract; mean value

With `CNCc1ccc(-c2cccc3c(=O)cc(N4CCOCC4)oc23)c2sc3ccccc3c12` the IC50 was 42.2 nM.

In the case of `O=c1cc(N2CCOCC2)oc2c(-c3ccc(CNc4ccccc4)c4c3sc3ccccc34)cccc12`, the IC50 is reported as 24.8 nM.

`O=c1cc(N2CCOCC2)oc2c(-c3ccc(CNCCOCCO)c4c3sc3ccccc34)cccc12` gave an IC50 of 58.9 nM.

The structures given here were assigned with low confidence; some may be wrong.
